Consider 37 targets from the supplement of paper PMC12819154, “High-throughput peptide-centric local stability assay extends protein–ligand identification to membrane proteins, tissues and bacteria” (Nature Structural & Molecular Biology, 2025).

Amino acid sequences for entries named in this document (tags omitted). A change or cut given only in a name is not applied to a line headed by its entry.
UniProt P76481: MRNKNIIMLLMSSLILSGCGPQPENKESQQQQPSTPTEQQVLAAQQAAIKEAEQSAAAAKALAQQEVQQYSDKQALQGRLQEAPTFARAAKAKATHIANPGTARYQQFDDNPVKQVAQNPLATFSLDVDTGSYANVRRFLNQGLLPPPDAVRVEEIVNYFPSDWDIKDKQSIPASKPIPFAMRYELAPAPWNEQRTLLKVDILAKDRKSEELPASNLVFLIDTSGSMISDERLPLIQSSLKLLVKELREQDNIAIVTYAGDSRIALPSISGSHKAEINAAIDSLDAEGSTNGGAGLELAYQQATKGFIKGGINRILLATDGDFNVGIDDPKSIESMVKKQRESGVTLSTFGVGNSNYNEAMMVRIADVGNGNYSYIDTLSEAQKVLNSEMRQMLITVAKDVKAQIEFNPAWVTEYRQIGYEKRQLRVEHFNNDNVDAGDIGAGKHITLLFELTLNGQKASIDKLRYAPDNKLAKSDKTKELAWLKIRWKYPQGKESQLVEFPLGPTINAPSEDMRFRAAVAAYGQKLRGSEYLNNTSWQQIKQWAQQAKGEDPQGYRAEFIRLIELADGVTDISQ
UniProt P77181: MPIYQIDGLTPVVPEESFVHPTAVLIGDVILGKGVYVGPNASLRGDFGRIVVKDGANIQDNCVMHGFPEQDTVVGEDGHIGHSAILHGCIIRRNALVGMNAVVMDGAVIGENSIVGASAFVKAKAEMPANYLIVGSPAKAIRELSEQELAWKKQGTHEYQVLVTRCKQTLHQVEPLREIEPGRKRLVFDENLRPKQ
UniProt P77569: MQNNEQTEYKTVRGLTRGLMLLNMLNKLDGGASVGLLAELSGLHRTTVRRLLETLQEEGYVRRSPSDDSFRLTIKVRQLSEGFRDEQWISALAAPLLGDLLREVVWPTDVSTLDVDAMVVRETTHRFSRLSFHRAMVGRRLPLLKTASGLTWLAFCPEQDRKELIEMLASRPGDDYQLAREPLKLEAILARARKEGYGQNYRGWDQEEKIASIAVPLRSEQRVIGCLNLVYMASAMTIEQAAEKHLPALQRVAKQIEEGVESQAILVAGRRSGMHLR
UniProt P77374: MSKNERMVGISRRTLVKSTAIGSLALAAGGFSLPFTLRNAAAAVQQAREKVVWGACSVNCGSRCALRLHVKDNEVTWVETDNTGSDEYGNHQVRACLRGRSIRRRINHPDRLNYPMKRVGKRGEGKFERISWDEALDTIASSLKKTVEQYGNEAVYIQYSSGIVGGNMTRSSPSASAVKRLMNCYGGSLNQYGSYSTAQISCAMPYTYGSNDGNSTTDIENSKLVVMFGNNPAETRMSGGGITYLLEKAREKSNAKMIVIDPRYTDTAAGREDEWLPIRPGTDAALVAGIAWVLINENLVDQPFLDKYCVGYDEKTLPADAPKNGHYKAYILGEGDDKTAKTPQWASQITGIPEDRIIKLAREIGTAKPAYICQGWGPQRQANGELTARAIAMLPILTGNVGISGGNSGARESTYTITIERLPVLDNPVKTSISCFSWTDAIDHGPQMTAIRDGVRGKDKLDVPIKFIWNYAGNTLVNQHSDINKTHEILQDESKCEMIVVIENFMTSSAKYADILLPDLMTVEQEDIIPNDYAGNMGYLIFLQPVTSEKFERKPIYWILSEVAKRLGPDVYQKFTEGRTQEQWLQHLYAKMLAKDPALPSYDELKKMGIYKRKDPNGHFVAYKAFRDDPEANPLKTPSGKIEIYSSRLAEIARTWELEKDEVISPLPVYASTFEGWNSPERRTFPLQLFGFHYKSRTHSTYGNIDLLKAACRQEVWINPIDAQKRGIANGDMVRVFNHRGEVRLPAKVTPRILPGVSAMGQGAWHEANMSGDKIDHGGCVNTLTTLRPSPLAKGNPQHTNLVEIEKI
UniProt P75919: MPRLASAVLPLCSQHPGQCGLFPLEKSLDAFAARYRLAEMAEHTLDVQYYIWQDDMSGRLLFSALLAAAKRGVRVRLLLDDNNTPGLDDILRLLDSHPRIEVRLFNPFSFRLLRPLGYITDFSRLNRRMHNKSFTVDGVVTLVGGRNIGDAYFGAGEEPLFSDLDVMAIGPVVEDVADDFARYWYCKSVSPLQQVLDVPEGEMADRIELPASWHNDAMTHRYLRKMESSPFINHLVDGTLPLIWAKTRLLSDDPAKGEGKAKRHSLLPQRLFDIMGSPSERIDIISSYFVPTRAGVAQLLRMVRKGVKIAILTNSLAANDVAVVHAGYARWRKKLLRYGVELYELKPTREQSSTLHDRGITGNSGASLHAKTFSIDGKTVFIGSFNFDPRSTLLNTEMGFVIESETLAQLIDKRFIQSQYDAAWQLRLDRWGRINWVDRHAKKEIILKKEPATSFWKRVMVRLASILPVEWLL
UniProt P76561: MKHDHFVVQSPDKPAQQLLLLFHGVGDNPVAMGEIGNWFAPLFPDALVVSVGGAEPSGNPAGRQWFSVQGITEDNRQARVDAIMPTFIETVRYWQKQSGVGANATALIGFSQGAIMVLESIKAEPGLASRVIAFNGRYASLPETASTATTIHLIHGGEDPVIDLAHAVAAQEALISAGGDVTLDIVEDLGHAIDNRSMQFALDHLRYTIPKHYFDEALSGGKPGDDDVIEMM
UniProt P77180: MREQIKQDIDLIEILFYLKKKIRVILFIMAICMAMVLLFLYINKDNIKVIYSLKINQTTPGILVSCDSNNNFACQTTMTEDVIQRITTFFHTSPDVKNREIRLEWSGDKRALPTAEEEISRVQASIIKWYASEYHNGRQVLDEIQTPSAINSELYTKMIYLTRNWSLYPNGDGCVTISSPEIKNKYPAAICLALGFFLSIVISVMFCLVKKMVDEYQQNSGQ
UniProt P77307: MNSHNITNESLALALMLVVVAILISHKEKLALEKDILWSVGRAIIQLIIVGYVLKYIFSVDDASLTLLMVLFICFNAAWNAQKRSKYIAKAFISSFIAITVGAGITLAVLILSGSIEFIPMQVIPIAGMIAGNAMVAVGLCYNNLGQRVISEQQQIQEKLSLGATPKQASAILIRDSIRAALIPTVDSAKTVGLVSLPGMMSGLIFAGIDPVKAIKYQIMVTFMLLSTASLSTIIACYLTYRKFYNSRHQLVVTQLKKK
UniProt P76052: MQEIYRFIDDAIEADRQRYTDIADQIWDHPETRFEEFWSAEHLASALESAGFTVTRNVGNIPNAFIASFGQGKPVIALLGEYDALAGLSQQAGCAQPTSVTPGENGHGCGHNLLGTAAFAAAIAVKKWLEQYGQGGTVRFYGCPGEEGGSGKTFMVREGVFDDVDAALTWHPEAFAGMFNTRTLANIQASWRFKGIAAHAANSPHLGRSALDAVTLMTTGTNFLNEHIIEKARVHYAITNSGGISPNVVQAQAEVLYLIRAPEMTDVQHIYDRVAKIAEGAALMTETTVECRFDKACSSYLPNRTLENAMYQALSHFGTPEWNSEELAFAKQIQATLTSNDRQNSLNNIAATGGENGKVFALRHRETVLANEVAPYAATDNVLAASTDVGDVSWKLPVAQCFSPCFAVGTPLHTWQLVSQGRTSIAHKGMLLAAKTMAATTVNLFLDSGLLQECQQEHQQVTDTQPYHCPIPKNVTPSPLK
UniProt P76112: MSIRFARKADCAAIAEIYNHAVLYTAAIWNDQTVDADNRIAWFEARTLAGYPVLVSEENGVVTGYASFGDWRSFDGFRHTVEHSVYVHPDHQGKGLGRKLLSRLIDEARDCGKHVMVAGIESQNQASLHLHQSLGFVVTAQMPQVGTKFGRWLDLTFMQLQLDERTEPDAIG
UniProt P77375: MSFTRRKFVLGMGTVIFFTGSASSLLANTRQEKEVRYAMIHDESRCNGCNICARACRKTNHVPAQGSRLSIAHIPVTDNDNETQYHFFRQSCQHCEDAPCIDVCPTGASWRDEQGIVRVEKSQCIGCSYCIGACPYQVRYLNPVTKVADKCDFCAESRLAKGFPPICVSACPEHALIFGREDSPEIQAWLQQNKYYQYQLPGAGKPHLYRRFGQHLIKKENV
UniProt P77295: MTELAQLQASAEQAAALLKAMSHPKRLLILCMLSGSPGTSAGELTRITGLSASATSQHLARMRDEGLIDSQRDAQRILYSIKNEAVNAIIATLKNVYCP
UniProt P76243: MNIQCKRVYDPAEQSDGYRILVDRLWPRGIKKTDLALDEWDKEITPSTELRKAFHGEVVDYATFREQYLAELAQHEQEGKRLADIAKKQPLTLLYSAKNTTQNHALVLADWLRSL
UniProt P77567: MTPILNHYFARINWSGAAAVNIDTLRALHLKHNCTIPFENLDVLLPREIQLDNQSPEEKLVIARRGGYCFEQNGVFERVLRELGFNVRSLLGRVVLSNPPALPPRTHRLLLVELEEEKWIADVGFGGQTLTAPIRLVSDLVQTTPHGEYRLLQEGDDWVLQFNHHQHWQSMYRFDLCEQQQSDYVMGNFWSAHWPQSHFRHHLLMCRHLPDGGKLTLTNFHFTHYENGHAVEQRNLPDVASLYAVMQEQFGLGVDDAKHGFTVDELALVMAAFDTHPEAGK
UniProt P76041: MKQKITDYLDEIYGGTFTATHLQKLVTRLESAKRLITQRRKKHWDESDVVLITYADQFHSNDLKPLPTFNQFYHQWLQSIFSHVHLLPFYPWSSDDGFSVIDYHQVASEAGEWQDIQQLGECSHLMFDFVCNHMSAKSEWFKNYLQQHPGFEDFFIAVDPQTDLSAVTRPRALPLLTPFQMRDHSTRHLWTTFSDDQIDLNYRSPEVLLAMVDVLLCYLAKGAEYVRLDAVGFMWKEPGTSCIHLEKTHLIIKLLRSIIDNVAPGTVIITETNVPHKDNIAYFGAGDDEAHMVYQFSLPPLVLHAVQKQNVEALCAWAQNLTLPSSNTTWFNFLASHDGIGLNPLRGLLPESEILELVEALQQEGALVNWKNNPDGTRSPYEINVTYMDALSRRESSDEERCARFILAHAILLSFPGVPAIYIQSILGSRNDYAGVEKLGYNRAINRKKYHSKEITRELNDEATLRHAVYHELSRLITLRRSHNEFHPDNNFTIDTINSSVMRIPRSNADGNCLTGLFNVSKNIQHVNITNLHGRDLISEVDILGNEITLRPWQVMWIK
UniProt P77510: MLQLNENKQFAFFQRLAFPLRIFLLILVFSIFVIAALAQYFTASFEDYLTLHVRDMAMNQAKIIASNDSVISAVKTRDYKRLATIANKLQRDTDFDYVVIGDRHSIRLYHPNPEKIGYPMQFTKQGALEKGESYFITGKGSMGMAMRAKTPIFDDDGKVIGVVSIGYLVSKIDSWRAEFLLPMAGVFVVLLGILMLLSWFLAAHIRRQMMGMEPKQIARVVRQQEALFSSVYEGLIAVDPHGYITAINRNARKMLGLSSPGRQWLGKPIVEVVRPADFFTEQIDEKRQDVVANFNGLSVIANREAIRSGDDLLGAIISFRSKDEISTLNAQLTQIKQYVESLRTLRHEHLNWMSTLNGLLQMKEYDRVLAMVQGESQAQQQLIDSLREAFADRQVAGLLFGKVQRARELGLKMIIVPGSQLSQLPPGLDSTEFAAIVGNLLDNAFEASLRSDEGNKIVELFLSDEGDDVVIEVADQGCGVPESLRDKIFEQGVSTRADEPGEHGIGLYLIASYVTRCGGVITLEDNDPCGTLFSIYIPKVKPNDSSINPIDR
UniProt P76177: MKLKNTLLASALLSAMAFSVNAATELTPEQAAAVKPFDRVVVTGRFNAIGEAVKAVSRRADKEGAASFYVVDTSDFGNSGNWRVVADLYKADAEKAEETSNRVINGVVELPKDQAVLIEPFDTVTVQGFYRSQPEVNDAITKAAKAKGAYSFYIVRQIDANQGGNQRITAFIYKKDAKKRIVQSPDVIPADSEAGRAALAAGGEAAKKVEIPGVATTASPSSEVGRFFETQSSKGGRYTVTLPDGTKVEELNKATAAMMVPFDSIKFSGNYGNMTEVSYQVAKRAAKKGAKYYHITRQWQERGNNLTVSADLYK
UniProt P77607: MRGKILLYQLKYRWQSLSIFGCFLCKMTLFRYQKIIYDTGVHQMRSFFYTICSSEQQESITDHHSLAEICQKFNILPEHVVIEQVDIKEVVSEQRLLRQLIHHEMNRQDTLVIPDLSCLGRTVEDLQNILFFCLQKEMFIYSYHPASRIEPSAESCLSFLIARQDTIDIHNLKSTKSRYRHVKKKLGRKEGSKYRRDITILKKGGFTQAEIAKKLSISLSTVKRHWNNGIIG
UniProt P77485: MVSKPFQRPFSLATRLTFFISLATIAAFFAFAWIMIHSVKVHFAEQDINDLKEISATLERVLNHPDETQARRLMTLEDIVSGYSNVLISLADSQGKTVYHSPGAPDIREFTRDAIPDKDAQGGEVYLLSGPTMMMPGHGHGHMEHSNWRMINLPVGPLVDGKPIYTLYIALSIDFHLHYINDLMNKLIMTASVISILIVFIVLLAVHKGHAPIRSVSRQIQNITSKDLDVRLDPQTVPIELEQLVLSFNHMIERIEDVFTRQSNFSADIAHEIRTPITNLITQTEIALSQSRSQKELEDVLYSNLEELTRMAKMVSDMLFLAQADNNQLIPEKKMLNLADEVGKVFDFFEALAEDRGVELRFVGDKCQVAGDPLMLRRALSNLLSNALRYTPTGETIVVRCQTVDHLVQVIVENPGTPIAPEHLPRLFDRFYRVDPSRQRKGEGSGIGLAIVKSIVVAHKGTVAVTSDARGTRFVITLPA

The list shows a part of the results. Most values lie at the level of the controls, where differences are scatter.

Compound in the test: CC1(C)S[C@@H]2[C@H](NC(=O)[C@H](N)c3ccccc3)C(=O)N2[C@H]1C(=O)O [ampicillin]
The experiment in a line: log2 fold change of tryptic peptide abundance, ligand vs vehicle (limited proteolysis) (log2 ratio); higher = more trypsin-susceptible (destabilized). To be noted: ligand concentration: 10 uM; sample: E. coli crude lysate.

“UniProt P76481 (peptide sequence: LQEAPTFAR, peptide start residue: 80)”: the log2 fold change was -0.0284.

Take “UniProt P77239 (peptide sequence: IDPTQTQNLGVK, peptide start residue: 84)”: the log2 fold change turned out to be 0.141.

Turning to “UniProt P77522 (peptide sequence: RALCEGENSK, peptide start residue: 304)”, the log2 fold change is -0.484.

Regarding “UniProt P77181 (peptide sequence: LVFDENLRPK, peptide start residue: 186)”, the log2 fold change was -0.153.

Take “UniProt P76546 (peptide sequence: HSPFGDDKQ, peptide start residue: 130)”: the log2 fold change was determined as 0.0974.

As to “UniProt P76001 (peptide sequence: INQTTTKMLFMCRE, peptide start residue: 109)”, the log2 fold change was determined as 0.336.

On to “UniProt P77569 (peptide sequence: QIEEGVESQAILVAGRR, peptide start residue: 255)”, for which the log2 fold change was determined as 0.957.

Consider “UniProt P77626 (peptide sequence: NESSPTVATLWK, peptide start residue: 43)”, for which the log2 fold change was -0.259.

Turning to “UniProt P76549 (peptide sequence: YHFSNETEFK, peptide start residue: 92)”, the log2 fold change came out at 0.114.

Turning to “UniProt P77374 (peptide sequence: THSTYGNIDLLK, peptide start residue: 698)”, the log2 fold change was -0.54.

For the target “UniProt P77202 (peptide sequence: TLNIIMGNK, peptide start residue: 240)”, the log2 fold change is -0.0802.

In the case of “UniProt P75968 (peptide sequence: KLNKDEAHNVMSNLYYPEVR, peptide start residue: 117)”, the log2 fold change is 0.0348.

With “UniProt P75919 (peptide sequence: EQSSTLHDR, peptide start residue: 350)”, the log2 fold change worked out at 0.226.

With “UniProt P76561 (peptide sequence: QWFSVQGITEDNRQAR, peptide start residue: 64)”, the log2 fold change is -0.164.

For the target “UniProt P77316 (peptide sequence: GYEIFEKR, peptide start residue: 370)”, the log2 fold change is -0.418.

In the case of “UniProt P77489 (peptide sequence: SATLHEATAGGR, peptide start residue: 554)”, the log2 fold change worked out at 0.19.

Take “UniProt P76440 (peptide sequence: LSGELTMAADKIILAVGQHAR, peptide start residue: 329)”: the log2 fold change was 0.698.

With “UniProt P77180 (peptide sequence: LEWSGDKR, peptide start residue: 103)”, the log2 fold change amounted to 0.268.

For the target “UniProt P77307 (peptide sequence: VISEQQQIQEK, peptide start residue: 149)”, the log2 fold change was 0.327.

For the target “UniProt P76052 (peptide sequence: FIDDAIEADR, peptide start residue: 7)”, the log2 fold change is -0.0967.

Turning to “UniProt P77564 (peptide sequence: QWLQGMR, peptide start residue: 24)”, the log2 fold change was -0.313.

For “UniProt P76112 (peptide sequence: IAWFEAR, peptide start residue: 40)”, the log2 fold change was -0.165.

Turning to “UniProt P76578 (peptide sequence: AQGLDLTIPVDKTWNR, peptide start residue: 805)”, the log2 fold change was -0.46.

Regarding “UniProt P76296 (peptide sequence: NSDDDTDVNVIK, peptide start residue: 39)”, the log2 fold change was determined as 0.353.

On to “UniProt P76346 (peptide sequence: RLVPLQGFELDSLR, peptide start residue: 51)”, for which the log2 fold change is -0.21.

On to “UniProt P77375 (peptide sequence: VADKCDFCAESR, peptide start residue: 147)”, for which the log2 fold change worked out at 0.323.

In the case of “UniProt P76231 (peptide sequence: EDFGISAKPIAMFK, peptide start residue: 77)”, the log2 fold change was 0.268.

Turning to “UniProt P77295 (peptide sequence: ITGLSASATSQHLAR, peptide start residue: 47)”, the log2 fold change is -0.0661.

For “UniProt P76243 (peptide sequence: KAFHGEVVDYATFR, peptide start residue: 52)”, the log2 fold change worked out at 0.157.

In the case of “UniProt P77567 (peptide sequence: LVSDLVQTTPHGEYR, peptide start residue: 136)”, the log2 fold change stood at 0.288.

Regarding “UniProt P76041 (peptide sequence: ELNDEATLR, peptide start residue: 458)”, the log2 fold change stood at 0.239.

Take “UniProt P77265 (peptide sequence: QHPEFYLR, peptide start residue: 103)”: the log2 fold change was -0.208.

Turning to “UniProt P77510 (peptide sequence: IFEQGVSTR, peptide start residue: 488)”, the log2 fold change was 0.366.

For “UniProt P76177 (peptide sequence: VINGVVELPK, peptide start residue: 103)”, the log2 fold change came out at 0.306.

With “UniProt P77607 (peptide sequence: RHWNNGIIG, peptide start residue: 224)”, the log2 fold change amounted to 0.311.

“UniProt P77485 (peptide sequence: QSNFSADIAHEIR, peptide start residue: 262)”: the log2 fold change came to 0.477.

With “UniProt P76471 (peptide sequence: YTIMRPVSIEAGYR, peptide start residue: 140)”, the log2 fold change was 0.0169.
